Measurements as given in the supplement of paper PMC10849652.
The list shows a part of the results. Residues, ends and D or L forms follow the SMILES beside them. *: point of attachment. Cbz = O=C(OCc1ccccc1)*

Sequences of proteins named here, by UniProt entry; tags and fusion partners are left off. A change or cut given only in a name is not applied to a line headed by its entry.
UniProt Q7L8W6: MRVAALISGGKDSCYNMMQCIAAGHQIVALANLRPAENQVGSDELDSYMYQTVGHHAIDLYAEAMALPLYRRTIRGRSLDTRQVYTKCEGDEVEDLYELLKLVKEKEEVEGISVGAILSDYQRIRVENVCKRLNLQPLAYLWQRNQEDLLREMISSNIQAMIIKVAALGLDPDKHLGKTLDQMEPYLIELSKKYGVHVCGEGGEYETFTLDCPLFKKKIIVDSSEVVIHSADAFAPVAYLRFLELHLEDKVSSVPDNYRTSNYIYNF
UniProt Q96FX2: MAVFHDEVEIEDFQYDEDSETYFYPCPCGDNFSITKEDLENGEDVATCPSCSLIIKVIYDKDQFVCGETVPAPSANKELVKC
UniProt Q9Y2G8: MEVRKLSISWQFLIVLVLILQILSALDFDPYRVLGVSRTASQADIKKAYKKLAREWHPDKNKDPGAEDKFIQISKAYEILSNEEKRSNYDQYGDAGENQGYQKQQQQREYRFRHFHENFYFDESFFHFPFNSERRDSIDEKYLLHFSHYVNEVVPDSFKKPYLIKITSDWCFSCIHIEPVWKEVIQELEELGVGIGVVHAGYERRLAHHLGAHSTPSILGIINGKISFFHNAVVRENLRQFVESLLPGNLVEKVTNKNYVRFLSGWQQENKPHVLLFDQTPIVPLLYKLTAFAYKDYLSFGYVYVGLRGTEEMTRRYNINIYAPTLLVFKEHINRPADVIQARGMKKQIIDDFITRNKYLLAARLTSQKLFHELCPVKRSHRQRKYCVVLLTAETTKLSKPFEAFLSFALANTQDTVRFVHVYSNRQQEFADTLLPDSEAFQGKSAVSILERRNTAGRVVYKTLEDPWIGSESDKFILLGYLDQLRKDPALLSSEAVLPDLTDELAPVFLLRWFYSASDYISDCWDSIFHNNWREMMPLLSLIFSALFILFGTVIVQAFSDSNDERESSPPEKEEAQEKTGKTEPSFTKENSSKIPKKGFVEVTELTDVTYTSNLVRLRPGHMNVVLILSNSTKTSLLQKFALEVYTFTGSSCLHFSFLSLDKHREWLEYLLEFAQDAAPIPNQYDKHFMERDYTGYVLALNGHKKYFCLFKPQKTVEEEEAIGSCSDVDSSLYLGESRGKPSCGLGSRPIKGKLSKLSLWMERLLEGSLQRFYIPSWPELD
UniProt Q56P03: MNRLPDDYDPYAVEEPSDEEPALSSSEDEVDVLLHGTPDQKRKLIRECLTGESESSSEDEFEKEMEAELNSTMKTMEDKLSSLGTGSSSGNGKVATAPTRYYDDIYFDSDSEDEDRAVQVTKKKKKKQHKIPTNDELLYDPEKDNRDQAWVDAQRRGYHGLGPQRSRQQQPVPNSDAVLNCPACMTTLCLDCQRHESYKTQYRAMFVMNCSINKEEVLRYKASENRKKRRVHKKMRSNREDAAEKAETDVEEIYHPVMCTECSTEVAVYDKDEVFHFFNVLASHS
UniProt Q13409, whole entry, looked up: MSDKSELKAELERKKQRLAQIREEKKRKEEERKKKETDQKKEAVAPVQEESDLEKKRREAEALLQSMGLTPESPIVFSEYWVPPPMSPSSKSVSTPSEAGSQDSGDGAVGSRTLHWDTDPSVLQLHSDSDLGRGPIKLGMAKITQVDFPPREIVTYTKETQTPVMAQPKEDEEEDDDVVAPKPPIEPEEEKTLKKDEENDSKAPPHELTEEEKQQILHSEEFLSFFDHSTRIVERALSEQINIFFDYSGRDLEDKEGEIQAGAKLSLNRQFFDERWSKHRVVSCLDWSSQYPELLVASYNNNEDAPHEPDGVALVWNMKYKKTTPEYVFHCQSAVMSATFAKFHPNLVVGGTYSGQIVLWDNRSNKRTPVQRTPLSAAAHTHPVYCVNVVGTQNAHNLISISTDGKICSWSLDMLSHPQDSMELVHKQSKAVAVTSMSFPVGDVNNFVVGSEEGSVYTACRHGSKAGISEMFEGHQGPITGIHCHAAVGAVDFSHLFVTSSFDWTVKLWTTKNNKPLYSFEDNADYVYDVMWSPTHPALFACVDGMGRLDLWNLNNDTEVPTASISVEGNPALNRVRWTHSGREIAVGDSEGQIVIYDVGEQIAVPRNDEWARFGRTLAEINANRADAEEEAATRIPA
UniProt Q99704: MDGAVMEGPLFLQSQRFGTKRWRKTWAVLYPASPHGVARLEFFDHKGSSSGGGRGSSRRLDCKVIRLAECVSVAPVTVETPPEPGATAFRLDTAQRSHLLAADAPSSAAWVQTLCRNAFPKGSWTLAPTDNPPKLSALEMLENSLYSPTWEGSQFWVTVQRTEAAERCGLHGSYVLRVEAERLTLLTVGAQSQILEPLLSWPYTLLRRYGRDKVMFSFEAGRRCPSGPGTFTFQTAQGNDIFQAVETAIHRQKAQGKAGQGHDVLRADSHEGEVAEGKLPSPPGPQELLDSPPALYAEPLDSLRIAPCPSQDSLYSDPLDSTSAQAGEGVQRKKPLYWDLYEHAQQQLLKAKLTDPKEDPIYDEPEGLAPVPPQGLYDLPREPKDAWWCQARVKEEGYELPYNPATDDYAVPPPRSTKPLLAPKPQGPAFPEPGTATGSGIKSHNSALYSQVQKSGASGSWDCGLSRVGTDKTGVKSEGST
UniProt Q6UX65: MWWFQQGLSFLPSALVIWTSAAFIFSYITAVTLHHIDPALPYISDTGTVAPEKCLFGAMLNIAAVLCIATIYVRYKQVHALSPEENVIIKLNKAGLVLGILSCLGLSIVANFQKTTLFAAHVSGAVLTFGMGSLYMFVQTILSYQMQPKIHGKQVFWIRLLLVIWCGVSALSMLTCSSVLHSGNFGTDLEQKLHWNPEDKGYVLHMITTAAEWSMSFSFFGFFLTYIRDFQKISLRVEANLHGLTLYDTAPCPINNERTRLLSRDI
UniProt Q86YN1: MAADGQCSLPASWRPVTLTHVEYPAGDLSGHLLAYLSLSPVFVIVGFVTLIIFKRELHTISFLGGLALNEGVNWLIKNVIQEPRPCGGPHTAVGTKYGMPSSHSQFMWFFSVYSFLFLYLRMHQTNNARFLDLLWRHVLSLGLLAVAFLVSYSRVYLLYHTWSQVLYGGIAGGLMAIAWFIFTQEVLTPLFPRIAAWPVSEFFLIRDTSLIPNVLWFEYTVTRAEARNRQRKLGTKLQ
UniProt Q9NXW2: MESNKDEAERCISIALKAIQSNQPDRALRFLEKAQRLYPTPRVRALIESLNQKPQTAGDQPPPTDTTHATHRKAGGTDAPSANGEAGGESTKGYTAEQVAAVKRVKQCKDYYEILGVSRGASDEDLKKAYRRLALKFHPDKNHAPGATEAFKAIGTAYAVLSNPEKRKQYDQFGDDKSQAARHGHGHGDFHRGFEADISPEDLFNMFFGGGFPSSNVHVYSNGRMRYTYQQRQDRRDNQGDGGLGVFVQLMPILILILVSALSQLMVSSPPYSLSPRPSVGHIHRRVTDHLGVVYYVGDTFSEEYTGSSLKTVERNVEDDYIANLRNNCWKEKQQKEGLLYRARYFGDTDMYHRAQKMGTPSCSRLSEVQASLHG
UniProt Q6P3W2: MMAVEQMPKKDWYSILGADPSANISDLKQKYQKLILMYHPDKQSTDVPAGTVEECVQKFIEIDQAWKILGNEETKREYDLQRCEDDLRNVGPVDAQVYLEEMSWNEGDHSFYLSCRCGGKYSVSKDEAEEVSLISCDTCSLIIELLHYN
UniProt Q96BY6: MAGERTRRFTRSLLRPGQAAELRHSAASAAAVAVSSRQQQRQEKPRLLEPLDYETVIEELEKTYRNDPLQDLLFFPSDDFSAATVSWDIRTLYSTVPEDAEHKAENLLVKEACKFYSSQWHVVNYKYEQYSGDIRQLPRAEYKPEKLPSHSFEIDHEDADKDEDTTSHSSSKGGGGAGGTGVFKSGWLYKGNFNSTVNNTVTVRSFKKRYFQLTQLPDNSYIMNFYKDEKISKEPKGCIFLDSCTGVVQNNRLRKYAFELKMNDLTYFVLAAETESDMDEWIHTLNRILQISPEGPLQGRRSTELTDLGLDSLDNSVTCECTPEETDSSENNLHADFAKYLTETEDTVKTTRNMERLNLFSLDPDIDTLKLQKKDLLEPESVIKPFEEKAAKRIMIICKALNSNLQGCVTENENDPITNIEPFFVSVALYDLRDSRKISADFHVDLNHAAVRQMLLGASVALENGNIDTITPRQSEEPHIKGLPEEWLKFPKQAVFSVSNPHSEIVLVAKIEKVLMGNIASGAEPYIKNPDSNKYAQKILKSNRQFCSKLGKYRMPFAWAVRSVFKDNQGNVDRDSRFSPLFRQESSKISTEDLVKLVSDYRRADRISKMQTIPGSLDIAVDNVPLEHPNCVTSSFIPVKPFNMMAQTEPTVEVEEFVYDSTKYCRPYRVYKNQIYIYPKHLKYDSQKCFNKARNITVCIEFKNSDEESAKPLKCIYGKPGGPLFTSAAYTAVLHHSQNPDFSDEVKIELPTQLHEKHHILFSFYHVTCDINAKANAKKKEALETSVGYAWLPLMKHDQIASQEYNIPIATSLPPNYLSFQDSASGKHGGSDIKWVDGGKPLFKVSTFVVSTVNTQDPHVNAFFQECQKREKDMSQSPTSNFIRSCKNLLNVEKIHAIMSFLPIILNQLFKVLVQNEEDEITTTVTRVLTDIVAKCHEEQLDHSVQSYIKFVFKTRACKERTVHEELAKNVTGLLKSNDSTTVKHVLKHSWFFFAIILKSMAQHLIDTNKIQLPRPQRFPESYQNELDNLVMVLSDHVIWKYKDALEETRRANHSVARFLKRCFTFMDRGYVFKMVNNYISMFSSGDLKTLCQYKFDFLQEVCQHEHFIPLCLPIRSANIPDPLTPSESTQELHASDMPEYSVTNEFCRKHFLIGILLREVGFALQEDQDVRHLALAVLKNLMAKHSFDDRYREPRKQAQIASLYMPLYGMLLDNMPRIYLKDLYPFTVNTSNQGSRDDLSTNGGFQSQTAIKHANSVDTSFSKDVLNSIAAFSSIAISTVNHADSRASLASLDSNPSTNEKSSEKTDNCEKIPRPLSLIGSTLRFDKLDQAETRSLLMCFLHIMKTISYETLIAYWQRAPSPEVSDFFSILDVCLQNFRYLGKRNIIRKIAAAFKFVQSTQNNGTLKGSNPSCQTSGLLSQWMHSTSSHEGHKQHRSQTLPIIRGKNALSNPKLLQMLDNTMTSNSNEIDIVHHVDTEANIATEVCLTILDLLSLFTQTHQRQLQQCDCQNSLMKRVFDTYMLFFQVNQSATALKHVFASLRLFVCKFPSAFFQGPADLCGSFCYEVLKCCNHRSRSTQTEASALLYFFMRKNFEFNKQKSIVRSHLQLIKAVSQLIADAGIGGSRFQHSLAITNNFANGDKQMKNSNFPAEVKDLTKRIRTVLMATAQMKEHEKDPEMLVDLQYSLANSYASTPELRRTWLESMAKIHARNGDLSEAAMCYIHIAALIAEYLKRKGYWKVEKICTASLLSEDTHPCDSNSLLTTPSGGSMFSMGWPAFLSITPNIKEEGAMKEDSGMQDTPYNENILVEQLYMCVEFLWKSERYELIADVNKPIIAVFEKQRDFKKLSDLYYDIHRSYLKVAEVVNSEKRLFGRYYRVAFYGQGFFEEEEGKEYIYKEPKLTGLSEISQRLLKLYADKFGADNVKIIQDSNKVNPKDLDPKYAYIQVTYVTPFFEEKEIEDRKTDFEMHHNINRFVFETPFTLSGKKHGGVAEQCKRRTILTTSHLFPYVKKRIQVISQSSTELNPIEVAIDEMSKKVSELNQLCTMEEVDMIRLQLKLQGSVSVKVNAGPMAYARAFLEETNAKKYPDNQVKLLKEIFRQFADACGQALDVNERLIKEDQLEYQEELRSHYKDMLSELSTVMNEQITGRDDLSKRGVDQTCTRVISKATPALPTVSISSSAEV
UniProt O00429, whole entry, looked up: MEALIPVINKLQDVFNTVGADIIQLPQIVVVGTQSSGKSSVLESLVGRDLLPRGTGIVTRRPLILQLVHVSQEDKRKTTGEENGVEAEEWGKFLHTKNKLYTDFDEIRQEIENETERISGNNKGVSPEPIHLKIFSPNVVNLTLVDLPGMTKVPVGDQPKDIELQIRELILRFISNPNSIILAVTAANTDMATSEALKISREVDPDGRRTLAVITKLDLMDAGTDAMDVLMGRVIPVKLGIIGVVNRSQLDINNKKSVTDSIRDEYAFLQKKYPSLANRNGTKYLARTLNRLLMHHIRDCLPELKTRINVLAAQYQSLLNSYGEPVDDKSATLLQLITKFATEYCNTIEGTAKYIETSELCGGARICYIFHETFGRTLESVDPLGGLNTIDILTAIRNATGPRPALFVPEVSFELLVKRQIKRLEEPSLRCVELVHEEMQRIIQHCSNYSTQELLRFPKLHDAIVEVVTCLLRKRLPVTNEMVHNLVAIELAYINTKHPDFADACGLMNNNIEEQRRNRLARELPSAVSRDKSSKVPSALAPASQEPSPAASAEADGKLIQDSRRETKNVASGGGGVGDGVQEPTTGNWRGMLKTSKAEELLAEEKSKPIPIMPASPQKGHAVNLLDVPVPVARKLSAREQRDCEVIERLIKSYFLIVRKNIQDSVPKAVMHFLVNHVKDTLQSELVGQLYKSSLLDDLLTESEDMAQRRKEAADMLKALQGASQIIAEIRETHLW

Key:
Test in all cases: log2 fold change, soluble protein after heating vs DMSO (PISA); higher = thermal stabilisation; K562 cells, 10 uM, 30 min; active = over 0.2 and 3.5 SD of the protein, either way, in both replicates (recomputed)
[1] = compound: C1COCCN1CCN2C3=CC=CC=C3N=C2NC(=O)C4=CC(=CC=C4)[N+](=O)[O-] [IRAK-1-4 Inhibitor I]
Summary of the method: (§1)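 K562 cells at 2×10^6 cells/mL were treated with 10 μM compound for 30 min. Aliquots were heated for 3 min across 48°C-58°C, pooled, and extracted in PBS with 0.5% NP-40 at 4°C; soluble protein was the supernatant after 21,000xg for 90 min. Soluble protein was quantified by TMTpro 16plex LC-MS/MS with channel sums equalised, and reported as log2 fold change in thermal stability against DMSO controls, with values from duplicates.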

[2] = compound: C=CC(=O)N1CCC[C@@H](n2nc(-c3ccc(Oc4ccccc4)cc3)c3c(N)ncnc32)C1 [ibrutinib]
Summary of the method: as §1

[3] = compound: CC(=O)c1cnc2ccc(-c3cc(Cl)c(O)c(Cl)c3)nc2c1N[C@H]1CC[C@H](CN(C)C)CC1
Summary of the method: as §1

[4] = compound: CC(C)(C)Cn1c(N)nc2ccc(-c3[nH]c(C(C)(C)C)nc3-c3ccc(F)cc3)nc21 [ralimetinib]
Summary of the method: as §1

[5] = compound: CC(C)(O)CC(=O)NCCn1ccc2ncnc(Nc3ccc(Oc4cccc(C(F)(F)F)c4)c(Cl)c3)c21
Summary of the method: as §1

[6] = compound: CC(C)C1=C2N=C(C=C(N2N=C1)NCC3=CC=CC=C3)NCCCCCCN
Summary of the method: as §1

[7] = compound: CC(C)C[C@@H](C=O)NC(=O)[C@H](CC(C)C)NC(=O)[C@H](CC(C)C)NC(=O)OCc1ccccc1
Summary of the method: as §1

[8] = compound: CC(C)N(C[C@H]1O[C@@H](n2cnc3c(N)ncnc32)[C@H](O)[C@@H]1O)[C@H]1C[C@@H](CCc2nc3cc(C(C)(C)C)ccc3[nH]2)C1 [pinometostat]
Summary of the method: as §1

[9] = compound: CC1=C(C(CC(=O)N1)C2=CC=C(C=C2)C(F)(F)F)C(=O)NC3=C(C=C4C(=C3)C=NN4)F
Summary of the method: as §1

[10] = compound: CC1=C(C2=C(C=C1)C(=O)C3=CC=CC=C3N2CCCN)C
Summary of the method: as §1

[11] = compound: CC1=C(C=C(C=C1)NC(=O)C2=CC(=CC=C2)C(C)(C)C#N)NC3=CC4=C(C=C3)N=CN(C4=O)C
Summary of the method: as §1

[12] = compound: CC1=C(C=C(C=C1)NC(=O)C2=CC(=CC=C2)N(C)C)NC(=O)C3=CC=C(C=C3)O
Summary of the method: as §1

[13] = compound: CC1=CC=C(C=C1)SC2=C3C=C(SC3=CN=C2)C(=O)N
Summary of the method: as §1

[14] = compound: CC1=NC(=CC=C1)C2=C(N=C(N2)C(C)(C)C)C3=CC4=NC=CN=C4C=C3
Summary of the method: as §1

[15] = compound: CCCCN(Cc1ccc(C(=O)NO)cc1)C(=O)Nc1ccccc1 [Nexturastat A]
Summary of the method: as §1

[16] = compound: CCCS(=O)(=O)Nc1ccc(F)c(C(=O)c2c[nH]c3ncc(-c4ccc(Cl)cc4)cc23)c1F [vemurafenib]
Summary of the method: as §1

[17] = compound: CCCS(=O)(=O)Nc1ccc(F)c(C(=O)c2c[nH]c3ncc(Cl)cc23)c1F
Summary of the method: as §1

[18] = compound: CCCc1cc(C)[nH]c(=O)c1CNC(=O)c1cc(-c2ccnc(N3CCN(C)CC3)c2)cc2c1cnn2C(C)C
Summary of the method: as §1

[19] = compound: CCN(CC)Cc1ccc2cc(COC(=O)Nc3ccc(C(=O)NO)cc3)ccc2c1 [givinostat]
Summary of the method: as §1

[20] = compound: CCN(CCCOc1ccc2c(Nc3cc(CC(=O)Nc4cccc(F)c4)[nH]n3)ncnc2c1)CCOP(=O)(O)O [barasertib]
Summary of the method: as §1

Measured: log2 fold change

DPH6 (UniProt Q7L8W6)
inactive: [1] 0.034 | [2] -0.108 | [3] -0.013 | [4] 0.019 | [5] -0.086 | [6] -0.161 | [7] -0.038 | [8] 0.008 | [9] -0.041 | [10] -0.088 | [11] 0.012 | [12] 0.003 | [13] 0.001 | [14] 0.039 | [15] -0.031 | [16] 0.094 | [17] 0.037 | [18] 0.055 | [19] 0.006 | [20] 0.044

DPH3 (UniProt Q96FX2)
inactive: [1] 0 | [2] -0.34 | [3] -0.077 | [5] 0 | [6] 0.097 | [8] -0.051 | [9] -0.022 | [10] 0.076 | [11] -0.005 | [13] 0.219 | [14] -0.025 | [15] 0.158 | [16] -0.042 | [17] 0 | [18] 0.001 | [19] 0.046 | [20] 0.068

DNAJC16 (UniProt Q9Y2G8)
inactive: [1] -0.005 | [2] 0.063 | [3] -0.541 | [5] -0.143 | [6] -0.074 | [8] 0.102 | [9] 0.008 | [10] -0.038 | [11] -0.023 | [13] -0.049 | [14] -0.06 | [15] -0.001 | [16] 0.042 | [17] 0.005 | [19] 0.025 | [20] -0.141

EAPP (UniProt Q56P03)
inactive: [1] -0.046 | [3] -0.054 | [4] -0.079 | [6] 0.017 | [7] 0.021 | [8] -0.037 | [9] 0.023 | [10] 0.144 | [11] 0.015 | [12] 0.041 | [13] 0.096 | [14] 0.083 | [16] 0.182 | [17] -0.018 | [18] 0.13 | [19] 0.074

E4F1 (UniProt Q66K89)
inactive: [1] 0.036 | [2] 0.098 | [3] 0.151 | [4] 0.107 | [5] -0.03 | [7] -0.004 | [8] -0.208 | [10] -0.033 | [11] 0.086 | [12] 0.142 | [13] -0.213 | [14] -0.047 | [15] 0.372 | [16] 0 | [17] -0.128 | [18] -0.149 | [20] -0.181

E2F3 (UniProt O00716)
inactive: [1] -0.005 | [2] 0.103 | [4] 0.011 | [5] -0.05 | [6] -0.161 | [7] 0.134 | [8] 0.021 | [9] -0.027 | [10] -0.123 | [11] -0.042 | [12] 0.057 | [14] 0.06 | [15] 0.102 | [16] -0.009 | [18] 0.019 | [19] 0.053 | [20] -0.146

DTNBP1 (UniProt Q96EV8)
inactive: [1] 0.069 | [2] -0.025 | [3] 0.038 | [4] -0.136 | [5] -0.058 | [6] -0.009 | [7] -0.029 | [8] -0.044 | [10] 0.092 | [11] -0.078 | [12] 0.006 | [13] 0.001 | [14] 0.055 | [15] -0.022 | [16] 0.021 | [17] 0.017 | [18] -0.026 | [19] -0.014 | [20] 0.01

DOCK8 (UniProt Q8NF50)
inactive: [1] 0.047 | [2] 0.015 | [3] 0.029 | [4] 0.105 | [5] -0.198 | [6] 0.152 | [7] 0.274 | [8] 0.059 | [10] -0.121 | [11] -0.094 | [12] -0.051 | [14] -0.086 | [15] 0.468 | [16] 0.134 | [18] 0.093 | [19] 0.245 | [20] 0.055

DNPEP (UniProt C9JBE1)
inactive: [1] 0.045 | [2] -0.018 | [5] -0.089 | [6] -0.006 | [8] 0.086 | [10] 0.199 | [11] -0.218 | [13] -0.004 | [14] -0.104 | [15] 0.015 | [16] -0.06 | [17] -0.224 | [18] -0.206 | [19] 0.18 | [20] 0.105

DONSON (UniProt Q9NYP3)
inactive: [1] -0.012 | [3] 0.057 | [4] -0.147 | [5] 0.228 | [7] 0.161 | [8] -0.065 | [9] 0.096 | [10] -0.083 | [11] 0.043 | [12] 0.096 | [14] -0.312 | [15] 0.316 | [16] -0.12

DYNC1I2 isoform 2 (UniProt Q13409)
inactive: [1] 0.012 | [2] 0.126 | [3] 0.106 | [4] 0.055 | [5] -0.133 | [6] -0.105 | [7] 0.154 | [8] 0.023 | [10] -0.05 | [11] 0.006 | [12] -0.054 | [13] -0.179 | [14] 0.061 | [15] 0.047 | [17] 0.018 | [18] 0.271 | [19] 0.044 | [20] 0.015

DPYSL2 (UniProt Q16555)
inactive: [1] -0.003 | [2] 0.092 | [3] 0.024 | [5] 0.092 | [6] 0.066 | [8] 0.009 | [10] 0.01 | [11] -0.056 | [13] 0.03 | [14] 0.033 | [15] -0.176 | [16] -0.056 | [17] -0.002 | [18] -0.065 | [19] 0.03 | [20] 0

DOK1 (UniProt Q99704)
inactive: [1] -0.105 | [2] 0.041 | [3] -0.026 | [5] -0.357 | [6] -0.032 | [8] 0.151 | [9] -0.028 | [10] -0.007 | [11] -0.303 | [13] 0.132 | [14] -0.355 | [15] -0.017 | [16] 0.249 | [17] 0.039 | [18] -0.022 | [19] -0.05 | [20] 0.144

DRAM2 (UniProt Q6UX65)
inactive: [1] -0.2 | [3] -0.156 | [5] 0.115 | [8] 0.144 | [10] 0.041 | [11] 0.025 | [13] -0.007 | [14] 0.154 | [15] -0.029 | [16] -0.107 | [17] 0.037 | [18] -0.403

DOLPP1 (UniProt Q86YN1)
inactive: [1] 0.008 | [2] -0.017 | [3] -0.19 | [4] -0.128 | [6] -0.045 | [7] -0.154 | [8] -0.056 | [10] 0.036 | [12] 0.012 | [13] -0.094 | [14] 0.026 | [16] -0.057 | [17] -0.042 | [18] -0.018 | [19] -0.027 | [20] 0.057

DNAJB12 (UniProt Q9NXW2)
active: [4] -0.767
inactive: [1] -0.026 | [2] 0.004 | [3] -0.013 | [5] -0.032 | [6] -0.012 | [7] 0.076 | [8] 0.021 | [10] 0.022 | [11] -0.071 | [12] -0.017 | [13] -0.002 | [14] 0.017 | [15] 0.044 | [16] 0.008 | [17] 0.008 | [18] -0.069 | [19] 0.06 | [20] -0.001

Taken from above (two entries):
DRAM2 (UniProt Q6UX65)
inactive: [1] -0.2 | [3] -0.156 | [5] 0.115 | [8] 0.144 | [10] 0.041 | [11] 0.025 | [13] -0.007 | [14] 0.154 | [15] -0.029 | [16] -0.107 | [17] 0.037 | [18] -0.403

DOLPP1 (UniProt Q86YN1)
inactive: [1] 0.008 | [2] -0.017 | [3] -0.19 | [4] -0.128 | [6] -0.045 | [7] -0.154 | [8] -0.056 | [10] 0.036 | [12] 0.012 | [13] -0.094 | [14] 0.026 | [16] -0.057 | [17] -0.042 | [18] -0.018 | [19] -0.027 | [20] 0.057

More entries follow:

DNAJC24 (UniProt Q6P3W2)
inactive: [1] -0.035 | [2] 0.011 | [4] 0.058 | [5] 0.026 | [6] -0.037 | [7] 0.058 | [8] -0.019 | [10] -0.023 | [11] -0.024 | [12] 0.368 | [13] 0.104 | [14] 0.008 | [15] -0.208 | [16] 0.008 | [17] -0.034 | [18] 0.027 | [19] 0.07 | [20] 0.008

DOCK10 (UniProt Q96BY6)
inactive: [1] 0.033 | [4] -0.001 | [7] -0.036 | [8] 0.061 | [9] 0.108 | [10] -0.151 | [12] 0.432 | [14] -0.011 | [16] 0.107 | [18] -0.563

DNM1L isoform 2 (UniProt O00429)
inactive: [1] -0.021 | [2] 0.054 | [3] 0.118 | [4] 0.028 | [6] 0.08 | [7] 0.043 | [8] -0.019 | [9] 0.018 | [10] 0.066 | [11] -0.131 | [12] 0.017 | [13] 0.09 | [14] -0.007 | [16] -0.002 | [17] -0.105 | [18] 0.001 | [19] -0.031 | [20] 0.001
